Data taken from ChEMBL document CHEMBL3988442, “University of Dundee, Small-Polar-MMV Screening Library” (2021).

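Viability assay of Plasmodium falciparum sporozoites; the read-out is not stated. The concentration is filed as 10 mM, unlikely as a test dose, so the dose is not known. Direction is inferred from retests: higher values go with lower viability. Strong results were mostly tested again. About 34,000 compounds were tested under these conditions; 0.84% (about 280) showed 50% or more at least once.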

Each number is a percent effect as filed.
How 0% and 100% were set is not recorded. Most values in the screen are low, and negative values occur.
The compounds are a random part of those screened.
Two or more numbers in one place are separate tests of the same structure; such repeats can differ widely.

| SMILES | Percent Effect |
|---|---|
| `Cc1nc(C2CN(C)CCO2)cc(N2CCC(C(N)=O)CC2)n1` (stereo not shown) | 10.4 |
| `CC(=O)N1CCN(c2nc(C(F)(F)F)nc3sc(C)c(C)c23)CC1` | 0.3552 |
| `O=C(O)C(F)(F)F.O=C1CCCN1Cc1nnc2n1CCCN(Cc1ccco1)C2` | -4.853 |
| `CCc1n[nH]c(C2CN(C(=O)Cc3cccs3)CCO2)n1` (stereo not shown) | 3.916 |
| `COc1cc(N2CC[C@@H](O)[C@@H]2Cc2ccncc2)ncn1.O=C(O)C(F)(F)F` | -2.259 |
| `CCc1noc(C)c1C(=O)N1CCCC1Cn1cccn1` (stereo not shown) | -1.706 |
| `CN(C)CCNCCC(c1ccccc1)C1CCOC(C)(C)C1.O=C(O)C(=O)O` (stereo not shown) | -26.24 & -21.27 |
| `Cc1nn(C)c(N(C)C)c1CNCc1ccnn1C` | -10.74 |
| `Cc1cccc(CN(Cc2ccc(C)o2)C2CC(C)(C)NC(C)(C)C2)n1.O=C(O)CC(O)(CC(=O)O)C(=O)O` | -3.199 |
| `COc1c(C2CCCN2C(=O)c2cscn2)c(C)nn1C` (stereo not shown) | 6.311 |
| `CCc1cnc(CN(C(C)=O)C2CCN(Cc3nccn3C)C2)o1` (stereo not shown) | 6.166 |
| `Cc1cn2c(n1)CCC(NC(=O)Cn1cncn1)C2` (stereo not shown) | 1.416 |
| `COC(=O)CC(c1ccc(OC)c(OC)c1)c1oc(C)cc(=O)c1O` (stereo not shown) | 4.678 |
| `CN(Cc1ccccc1)CC(O)Cn1cnc2cc(F)ccc2c1=O` (stereo not shown) | 9.997 |
| `CNCCc1nc2cc(Cl)ccc2[nH]1.Cl.Cl` | -1.288 |
| `Cc1cc(CN2CCN(CC(O)c3ccc(Cl)cc3)CC2)no1` (stereo not shown) | 4.831 |
| `Cc1cc(C)c2[nH]c(C(=O)NCCN3CCOC3=O)c(C)c2c1` | -6.315 |
| `CC1CCN(c2ncc(-c3ccccc3F)c(-c3nccn3C)n2)CC1` | 11.81 |
| `Cc1cc(C(=O)N2CCc3ncnc(-c4cnn(C)c4)c3CC2)c(C)o1` | 4.123 |
| `CNC(=O)CCS(=O)(=O)Cc1cc(Cl)c2c(c1)OCCCO2` | -3.122 |
| `CN1CCCC1c1ccc(N2CCOCC2)cn1` (stereo not shown) | 12.3 |
| `O=C(NCCNc1ncccn1)C1CCN(CC(F)(F)F)CC1` | 3.68 |
| `CC(NCc1cc(F)ccc1F)c1ccc(OCC(=O)NC2CC2)cc1` (stereo not shown) | 4.307 |
| `CN(CCc1ncnn1C1Cc2ccccc2C1)C1CCS(=O)(=O)C1` (stereo not shown) | -7.162 |
| `CCCn1cc(-c2cc(-c3cnc(OC)nc3)c(C#N)c(N)n2)c(C)n1` | -11.85 |
| `Cc1ccc(CN2CCC(O)(Cn3ccc4ncccc43)CC2)o1.Cl` | -0.9814 |
| `CC(c1nc(C(C)(C)C)no1)N1CCN(Cc2ccco2)CC1` (stereo not shown) | -3.142 |
| `CC(=O)N1CCC(c2cnc(NC3CCOCC3)cn2)CC1` | 4.665 |
| `CCn1c(C)nc2cc(NC(=O)C3CN(C(C)=O)C3)ccc21` | -0.5895 |
| `COCCN1CCC2(CCC(=O)N2Cc2csc(C)n2)CC1.O=C(O)C(F)(F)F.O=C(O)C(F)(F)F` | 9.781 & -14.52 & -6.723 |
| `CC(NC(=O)Nc1ccc(-c2csnn2)cc1)C(=O)NC(C)(C)C` (stereo not shown) | 5.45 |
| `Cc1noc(C(C)N2CCN(CCCN3CCCC3=O)CC2)n1` (stereo not shown) | 13.92 |
| `Cc1cc(C(=O)NC2CC(=O)N(C(C)C)C2=O)c(C)n1C(C)C` (stereo not shown) | 14.36 |
| `CN(C)C(=O)c1cn[nH]c1C1CCCN1Cc1c[nH]cn1` (stereo not shown) | 10.97 |
| `COC(=O)c1cccc(C(=O)N2CCCCC2CCn2ccnc2C)c1` (stereo not shown) | -3.648 |
| `CC(=O)NCc1ccc(-c2ccccc2C(=O)O)cn1` | -0.06341 |
| `Cn1ccnc1CC1CCCN(Cc2noc(C3CC3)n2)C1` (stereo not shown) | 0.09859 |
| `Cc1nnc(SCc2ccccn2)s1` | 0.8612 |
| `CCN1CCC(CNCc2c[nH]nc2C(C)(C)C)C1.Cl` (stereo not shown) | 2.69 |
| `CNC(=O)C1CCCN(C(=O)c2cncs2)C1` (stereo not shown) | 5.839 |
| `Cn1cc(C[C@H]2[C@H](O)CCN2CC2CC2)cn1.O=C(O)C(F)(F)F` | -15.31 |
| `O=C(O)C(F)(F)F.O=C(O)C(F)(F)F.O=C(O)C(F)(F)F.[H][C@@]12OCCN(Cc3ccccn3)[C@@]1([H])CC[C@H]2OCCN1CCCC1` | -4.654 |
| `CN(CC(=O)NC1(C#N)CCCC1)C1CCCN(c2cccnn2)C1` (stereo not shown) | 11.82 |
| `O=C(Nc1ccc(CCN2CCC(O)CC2)cc1)Nc1cccnc1` | 2.471 |
| `Cc1ccc(CN2CCc3[nH]nc(C(=O)N(C)C)c3C2)o1.O=C(O)C(F)(F)F` | 5.304 |
| `CC(C)c1cc(N2CCC(CCC(=O)NC3CC3)CC2)n2nccc2n1` | 5.717 |
| `CCS(=O)(=O)N1CCC2(CC1)CC(CC(=O)NC1CC1)c1ccccc12` (stereo not shown) | -2.599 |
| `O=C(c1cccc2c1OCCO2)N1CCCC(n2ccnc2)C1` (stereo not shown) | -7.914 |
| `CC(C)C(=O)Nc1cc(C(=O)NC2CC(C)(C)NC(C)(C)C2)nn1C` | 18.28 |
| `Cc1noc(NC(=O)c2ccc(C)c(F)c2)n1` | 8.964 |
| `Cn1nccc1CN1CCOC(c2cccc(Nc3ccccn3)n2)C1` (stereo not shown) | -3.465 |
| `COc1ccc(C(=O)N2CCC(Nc3cccnn3)CC2)c(OC)c1` | -2.625 |
| `NCc1cnn(-c2ccccc2C(=O)N2CCCC(C(N)=O)C2)c1` (stereo not shown) | -3.325 |
| `COc1cccn(CC(=O)N(C)CCOc2cc(C)cc(C)c2)c1=O` | -1.59 |
| `O=C(CC1=CCCCC1)NCc1ccnc(OC2CCOCC2)c1` | 12.11 |
| `CNC(=O)c1ccc(C2CN(c3cc(C)nc(N)n3)CCO2)nc1` (stereo not shown) | 7.764 |
| `[H][C@]12C[C@H](C(=O)NC)N(S(C)(=O)=O)[C@@]1([H])CN(C(=O)c1ccsc1)C2` | 9.444 |